Reference: PubChem BioAssay AID590 (National Center for Advancing Translational Sciences (NCATS), 2007)
Several values for one entry are separate records, joined by “and”; a condition that tells them apart may be missing. Equal entries are not always repeated. The whole screen tested about 59,000 compounds, of which about 6,500 (11%) were called active. The inconclusive results got no clear call from the source; some entries with a clear call stand among them for comparison. No stated cut-off is given here; in the data, active means max dye-equivalent concentration above about 10 nM; inconclusive means mostly about 1.1 nM to 9.6 nM; inactive means weaker than that. More than one record can exist for a structure, and the calls need not agree.

Assay: qHTS Assay for Spectroscopic Profiling in A350 Spectral Region
Conditions: Compound autofluorescence, 340/450 nm, Alexa 350 dye-equivalents; stronger effect = higher value

Row | Compound | max dye-equivalent concentration | outcome
1 | COc1ccccc1CCC(=O)Nc1nc2ccccc2[nH]1 | active: 4e-08 M | 
2 | O=C(Oc1cccc2cccnc12)c1cccs1 | inconclusive: 1.4e-09 M | 
3 | CC1CN(Cc2ccc(C#N)cc2Cl)CC(C)O1 (stereo not given) | inconclusive: 8.5e-09 M | 
4 | O=C1CCCC2=C1C(c1ccsc1)CC(=O)N2c1ccccc1 (stereo not given) | inactive | 
5 | O=C(Nc1nc2ccccc2n1Cc1ccccc1)c1ccco1 | inconclusive: 2e-09 M | 
6 | CC1CCN(c2nnc(N)s2)CC1 | inconclusive: 2e-09 M | 
7 | N#Cc1c(N)n(CCOC(=O)c2cccc(Br)c2)c2nc3ccccc3nc12 | active: 2.8e-07 M | 
8 | CC(C)OCC(O)Cn1c(N2CCCC2)nc2c1c(=O)[nH]c(=O)n2C (stereo not given) | inconclusive: 2.2e-09 M | 
9 | CCN1CCN(C(=O)C2c3cc(OC)c(OC)cc3C(=O)N(C)C2c2ccc(SC)cc2)CC1 (stereo not given) | inconclusive: 5.1e-09 M | 
10 | CC(C)CC(=O)Nc1ccccc1N1CCCC1 | inactive | 
11 | CCn1nnnc1SCC(=O)Nc1cc(OC)cc(OC)c1 | inactive | 
12 | CN1/C(=C\C(=O)Nc2cccnc2)c2ccccc2CC1(C)C | inconclusive: 1.2e-09 M | 
13 | COCc1cc(C)c(C#N)c(=S)[nH]1 | inconclusive: 2.4e-09 M | 
14 | Fc1ccc(N2CCN(c3nc(-c4ccco4)cc(C(F)(F)F)n3)CC2)cc1 | inactive | 
15 | CCN(CC)c1nc2ccccc2nc1C(C#N)C(=O)NCCc1ccccc1 (stereo not given) | inconclusive: 2.5e-09 M | 
16 | CCN1CCN(c2cc(C)c3cc(NC(=O)c4ccc(Br)o4)ccc3n2)CC1 | inconclusive: 2.2e-09 M | 
17 | CC(C)(C)NC(=O)C(c1ccc(OCC(N)=O)cc1)N(C(=O)c1cccnc1)C1CC1 (stereo not given) | inconclusive: 2e-09 M | 
18 | Cn1cccc1C(=O)N1CCC2(CCCN(C(=O)Nc3cccc(F)c3)C2)CC1 | inactive | 
19 | Cc1nccn1-c1cc(C(C)C)c(C#N)c2nc3ccccc3n12 | inconclusive: 9.5e-09 M | 
20 | O=C(O)CN1CCN(Cc2ccc(F)cc2Cl)C1=O | inconclusive: 2e-09 M | 
21 | Cc1cccc(NC(=O)N(Cc2nc3ccccc3c(=O)[nH]2)C2CCCC2)c1 | inconclusive: 1.9e-09 M | 
22 | COc1ccc(NC(=O)CN2CCC3(O)CCCCC3C2c2ccccc2OC)cc1 (stereo not given) | inactive | 
23 | COc1ccc(OC)c(NC(=O)c2cc3sccc3n2C)c1 | inconclusive: 2.8e-09 M | 

Row | Compound | max dye-equivalent concentration | outcome
24 | N#CCCn1c(=O)c(-c2cccs2)nc2cnc(OCc3ccccc3)nc21 | active: 9.3e-08 M | 
25 | Cc1nc(SCC(=O)c2ccccc2)c(C#N)c(-c2ccco2)c1C(=O)NCc1ccco1 | inconclusive: 2.3e-09 M | 
26 | O=C(c1c(F)cccc1F)N1CCC(O)(c2cccnc2)CC1 | inconclusive: 1.3e-09 M | 
27 | O=c1c(-c2ccccc2)nc2cnc(N3CCNCC3)nc2n1Cc1cccs1 | active: 1.6e-08 M | 
28 | O=C(Nc1cccc(C(=O)N2CCOCC2)c1)c1cncc(Br)c1 | inconclusive: 2.1e-09 M | 
29 | Cc1ccc2c(c1)C1OCCC1C1N2C(=O)C2C(C(=O)O)C3C=CC21O3 (stereo not given) | inconclusive: 2.9e-09 M | 
30 | CC(c1ccco1)N(C(=O)Nc1ccc(Cl)cc1)c1ccccn1 (stereo not given) | inconclusive: 1.5e-09 M | 
31 | CCOC(=O)N1CCN(C(=O)c2ccc(Cn3c(=S)[nH]c4cc5c(cc4c3=O)OCO5)cc2)CC1 | inconclusive: 2.4e-09 M | 
32 | COc1ccc(C(=O)Nc2cccc(C(=O)N3CCCC3)c2)cc1 | inconclusive: 1.6e-09 M | 
33 | CC1=Nn2c(nnc2-c2cc(C)[nH]n2)SC1 | inactive | 
34 | Cc1ccc(NC(=O)C2CC=CCC2C(=O)N2CCCCC2)cc1 (stereo not given) | inconclusive: 1.9e-09 M | 
35 | CN1CCn2c1nc(N1CCOCC1)nc2=O | inactive | 
36 | Cc1cc(C)nc(Sc2c(C)n[nH]c2C)n1 | inactive | 
37 | CC(=O)Nc1ccc(N(C(=O)c2cnccn2)C(C(=O)NC2CCCCC2)c2ccc(O)cc2)cc1 (stereo not given) | inactive | 
38 | CN1CC(=O)NC1=NC(=O)C12CC3CC(CC(C3)C1)C2 | inconclusive: 7.6e-09 M | 
39 | COc1cccc(OCCNC(=O)c2cccc(OC)c2)c1 | inconclusive: 1.2e-09 M | 
40 | N#Cc1cccc(-c2cncnc2NCc2cccs2)c1 | inactive | 
41 | COc1ccccc1N1CCN(C(=O)CSc2nc3ncnc(N)c3[nH]2)CC1 | inconclusive: 1.5e-09 M | 
42 | CCOC(=O)C1=C(C)NC(SCC(=O)Nc2nc(C)cs2)=C(C#N)C1c1cccs1 (stereo not given) | inconclusive: 1.1e-09 M | 
43 | CC1(C)CC(=O)c2cc(C(=O)N3CCCC(C)(C)C3)c(=O)n(-c3ccccc3)c2C1 | inconclusive: 9.8e-09 M | 
44 | CCCS(=O)(=O)NCCc1cc2cc(C)c(C)cc2[nH]c1=O | inconclusive: 1.8e-09 M | 
45 | COc1ncc2nc(-c3ccc(Cl)cc3)c(=O)n(CCc3ccccc3)c2n1 | inconclusive: 7e-09 M | 
46 | COc1ccc(C(=O)Nc2ccccc2C(=O)NCCN2CCOCC2)cc1 | inconclusive: 1.3e-09 M | 

Some values from the entries so far.
Value for `CCN(CC)c1nc2ccccc2nc1C(C#N)C(=O)NCCc1ccccc1` (stereo not given) under max dye-equivalent concentration: inconclusive: 2.5e-09 M
Value for `CCOC(=O)C1=C(C)NC(SCC(=O)Nc2nc(C)cs2)=C(C#N)C1c1cccs1` (stereo not given) under max dye-equivalent concentration: inconclusive: 1.1e-09 M
Value for `COc1ccccc1CCC(=O)Nc1nc2ccccc2[nH]1` under max dye-equivalent concentration: active: 4e-08 M
Value for `O=C1CCCC2=C1C(c1ccsc1)CC(=O)N2c1ccccc1` (stereo not given) under max dye-equivalent concentration: inactive

Additional structures follow.

Row | Compound | max dye-equivalent concentration | outcome
47 | N#Cc1c[nH]n2c(=O)cc(Cc3ccccc3)nc12 | inconclusive: 2.2e-09 M | 
48 | CCOC(=O)c1[nH]c2ccc(OC)cc2c1NC(=O)CCN1CCc2ccccc2C1 | active: 4.7e-08 M | 
49 | Cc1nc(NCCc2cnc[nH]2)c2oc3ccccc3c2n1 | inactive | 
50 | O=S(=O)(c1cccc(C(F)(F)F)c1)N(CCCN1CCOCC1)Cc1cccs1 | inconclusive: 2.8e-09 M | 
51 | CCOC(=O)c1[nH]c(C)c(C(=O)OCCN2C(=O)c3ccccc3C2=O)c1C | inactive | 
52 | Cc1ccc2nsnc2c1S(=O)(=O)N(CCO)Cc1cc2cc3c(cc2[nH]c1=O)OCCO3 | active: 1.8e-08 M | 
53 | CCOC(=O)c1c(NC(=O)COC)sc2c1CCCC2 | inconclusive: 1.8e-09 M | 
54 | O=C(NCc1ccco1)C1Cc2ccccc2CN1S(=O)(=O)c1ccccc1F (stereo not given) | inconclusive: 7.5e-09 M | 
55 | CCCOc1ccc2oc(=O)c3c(c2c1)CCCN3C(=O)CN1CCN(C(=O)c2ccco2)CC1 | active: 7.5e-08 M | 
56 | O=C(Cc1cccs1)N1CCCC(c2nc3c(nnn3Cc3ccccc3Cl)c(=O)[nH]2)C1 (stereo not given) | inconclusive: 2.9e-09 M | 
57 | CC[C@H](C(=O)[C@H](C)[C@H](O)[C@H](C)CCc1ccc(C)c(O)c1C(=O)O)[C@H]1O[C@](CC)([C@@H]2CC[C@@](O)(CC)[C@H](C)O2)C[C@H]1C | inactive | 
58 | Cc1ccc(S(=O)(=O)N2CCC(C(=O)Nc3ccccc3N3CCCCC3)CC2)cc1 | inactive | 
59 | CC(C)NC(=O)N1CCCC2(CCN(C(=O)c3ccncc3)CC2)C1 | inactive | 
60 | CN1CCN(S(=O)(=O)c2ccc(NC(=O)c3ccc(Br)o3)cc2)CC1 | inactive | 
61 | CN1[C@@H]2CC[C@H]1CC(OC(=O)[C@@H](CO)c1ccccc1)C2 (stereo not given in full) | active: 5.1e-08 M and inconclusive: 3.7e-09 M | inactive
62 | OC12CCCCC1C(c1ccc3c(c1)OCO3)N(Cc1ccc(F)cc1)CC2 (stereo not given) | inconclusive: 1.8e-09 M | 
63 | CN(C)CC/C=C1\c2ccccc2COc2ccccc21 | inconclusive: 1.6e-09 M | 
64 | c1ccc(-c2cc(-c3cc(-c4ccccn4)[nH]n3)n[nH]2)nc1 | inactive | 
65 | CCCCC(OC(=O)c1cc2occc2n1C)C(=O)NCC1CCCO1 (stereo not given) | inconclusive: 2.5e-09 M | 
66 | COC(=O)c1ccccc1NC(=O)CSc1nnc(C(CO)NC(=O)c2ccccc2)n1C (stereo not given) | inconclusive: 2.2e-09 M | 
67 | CCOc1cc2nc(-c3ccc(OC)c(OC)c3)nc(N3CCOCC3)c2cc1OC | inconclusive: 3.3e-09 M | 
68 | CN(C)CCOc1nc(-c2ccccc2)nc2c1oc1ccccc12 | inactive | 
69 | O=C(c1ccc(Cl)c(Cl)c1)N1CCOCC1 | inactive | 

Row | Compound | max dye-equivalent concentration | outcome
70 | Cc1nc2cnc(N3CCOCC3)nc2n(CCC#N)c1=O | inconclusive: 5.2e-09 M | 
71 | c1csc(-c2nnc3ccccn23)c1 | inconclusive: 2.6e-09 M | 
72 | COCCOC(=O)C1=C(C)Nc2ncnn2C1c1ccccc1 (stereo not given) | inconclusive: 2.1e-09 M | 
73 | COC(=O)c1nn2c(C(F)(F)F)cc(-c3ccc(Br)o3)nc2c1Br | inconclusive: 3e-09 M | 
74 | CCOc1ccc(-c2nn3c(-c4ccc(OC)cc4)nnc3s2)cc1 | inconclusive: 2e-09 M | 
75 | COc1cccc2cc(C(=O)N3CCc4ccccc4C3)c(=O)oc12 | inactive | 
76 | CC(C)(C)NC[C@H](O)COc1cccc2[nH]c(=O)[nH]c12 | inactive | 
77 | COc1cc(OC)cc(C(=O)NCc2cccnc2)c1 | inactive | 
78 | CCn1c(=O)cc(SCC(=O)N2CCN(Cc3ccc4c(c3)OCO4)CC2)c2ccccc21 | inconclusive: 2.7e-09 M | 
79 | Cc1ccc2[nH]c3c(c2c1)CN(C(=O)CN1CCN(c2ccccn2)CC1)CC3 | inconclusive: 6.8e-09 M | 
80 | Cc1ccc(-n2ncc3c2ncn2c(C)nnc32)cc1C | inconclusive: 3.2e-09 M | 
81 | CCOC(=O)c1cc(-c2ccc(/C=N\n3cnnc3)o2)ccc1Cl | active: 2.1e-08 M | 
82 | COc1ccc(-c2nn3c(-c4cccc(C)c4)nnc3s2)cc1OC | inconclusive: 3.4e-09 M | 
83 | O=C(NCc1ccco1)c1cc(-c2ccc3c(c2)OCO3)on1 | inconclusive: 2.9e-09 M | 
84 | COc1ccccc1CNc1ncnc2ccc(-c3cccnc3)cc12 | inactive | 
85 | CCOc1ccc(-n2c(=O)[nH]cc(C(=O)N3CCc4ccccc43)c2=O)cc1 | inconclusive: 2.4e-09 M | 
86 | Cc1cc(C)cc(Nc2ncc3c(n2)CC(c2ccco2)CC3=O)c1 (stereo not given) | active: 6.4e-07 M | 
87 | Cc1cc2oc(=O)cc(CN3CCCCC3)c2cc1C(C)C | inconclusive: 2.4e-09 M | 
88 | CC(=O)c1nc2ccccc2n1S(=O)(=O)c1ccc(Cl)cc1 | inconclusive: 3.2e-09 M | 
89 | O=C(NC(C(=O)c1ccccc1)N1CCOCC1)c1cccs1 (stereo not given) | inconclusive: 4e-09 M | 
